Literature values as cited in patent US20120009644A1, “Tissue Implants for Implantation and Methods for Preparing the Same” (CRYOLIFE, INC., priority 2010, published 2012).
At least one compound was matched to its structure with a doubt left.

Tested on: sensitive bacteria
Details: literature review

SMILES: C[C@H]1COc2c(N3CCN(C)CC3)c(F)cc3c(=O)c(C(=O)O)cn1c23 [levofloxacin]
- minimum inhibitory concentration against sensitive bacteria (MIC) range: 0.03 to 32 µg/mL
